Results published in the supplement of paper PMC5949888.
Most values lie at the floor of the assay. Slopes are relative: functional sequences can read slightly below zero.

System: Saccharomyces cerevisiae PS128 hsf1 delta, HSF1(1-493) fusion
Assay: growth estimate (transactivation domain function in HSF1 fusion, heat-shock survival) (a.u. (slope of normalised read count over time)); higher = stronger growth at 37°C, i.e. more transactivation activity
Settings: library: random library
Description: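 Random 60-nt DNA library encoding peptides of up to 20 aa, fused to the C-terminus of yeast HSF1 residues 1-493 (C-terminal TAD deleted) and expressed from the native HSF1 promoter on a CEN plasmid in hsf1-deleted S. cerevisiae PS128. Cells were selected at 37°C on -trp 5-FOA plates for 0, 2, 4, 6 and 8 days and amplicons were sequenced. Growth estimate is the slope of a robust linear fit of total-sum-normalised read counts (normalised to the first time point) over time, using at least 2 replicates. Sequences are classed functional (TAD activity) above a threshold of -0.13, set from stop-codon control sequences.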

Substance	growth estimate
DCLGTLTVSQPLTLFL	< -0.25
DCRTYWVRGPCIQERTLIVI	< -0.25
DCTGP	< -0.25
DCTYCMGYRAVRAS	< -0.25
DCVVCTAC	< -0.25
DCYP	< -0.25
DDADRYHHIPDNRDSPCSSL	< -0.25
DDEGLSGRKVEPVE	< -0.25
DDEGTYCVNACKTP	< -0.253
DDHKPPGLARSSFSGR	< -0.25
DDILDTLVSVGYRIYG	< -0.25
DDISC	< -0.25
DDKAPRLSYQRHW	< -0.25
DDLSEVVPSL	< -0.25
DDLSPGVVIMPGSITSRHGF	< -0.25
DDRLR	< -0.25
DDRMEFSEYKAVPPRPYIAL	< -0.25
DDWMRYAAPH	< -0.25
DDWPIRAWRIAGC	< -0.25
DEC	< -0.25
DEEGIL	< -0.25
DEKKTARPTRGCAAIVPH	< -0.25
DELFEGWDIH	< -0.25
DEPGRSRYRTGGMKGGAQAK	< -0.25

Substance	growth estimate
DEQAPLPRRLLGPWERDPVR	< -0.25
DERRRW	< -0.25
DEWILVGDPVTPIGYGQFHS	< -0.25
DFG	< -0.25
DFGRKLICG	< -0.25
DFGVRVVGLQRCLRLRQRYW	< -0.25
DFL	< -0.25
DFRRLR	< -0.25
DFSSSHLKCFPYLGEASFEG	-0.237
DFTANAGGRNSQSEPAEGAL	-0.243
DFTFASAPVDYWYTRSVTRT	< -0.25
DFVGL	< -0.25
DGA	< -0.25
DGDCAGVGHAARGTYGVSGA	< -0.25
DGEPRILMCQRMRPFPCRPH	< -0.25
DGFE	< -0.25
DGGRIEKFPTL	< -0.25
DGGSSCHLPSDGRRRSVLRH	< -0.25
DGIRKGRVVDRGDLMLSTAL	< -0.25
DGIVVMIVAKGRSGGDWVM	< -0.25
DGIVWGRWFRTEPIEPLQQA	< -0.25
DGLDRVRAFGRLSMEGRDDV	< -0.25
DGLSRVL	< -0.25
DGMHAAGTAAITAYTTGREM	< -0.25

As entered above:
Value for DGA under growth estimate: < -0.25
Value for DGEPRILMCQRMRPFPCRPH under growth estimate: < -0.25
Value for DFTFASAPVDYWYTRSVTRT under growth estimate: < -0.25
Value for DFGRKLICG under growth estimate: < -0.25

(continued)

Substance	growth estimate
DGPETELPAAVGACIDPAR	< -0.25
DGRHRS	< -0.25
DGRSKFANPGASNFSRAVSD	< -0.25
DGSFTRGRGCRRP	< -0.25
DGSLVLPKVHYRA	< -0.25
DGSTLEAKTCVAVRLAFVAS	< -0.25
DGTE	< -0.25
DGVLRQVCSAIVVCFPSA	< -0.25
DGVSGGPPSRITSVVFHSST	< -0.25
DGYVSRLNSRLIRLASGAWS	< -0.25
DHCLQNTRRGTGVRFRTFGG	< -0.25
DHDGRYTSHVRAIIERY	< -0.25
DHFQLTDHIETSWERGSRRA	< -0.25
DHFSSGYPYSRYPTL	< -0.25
DHFTCTALDCRA	< -0.25
DHGICLVRWIMLFPGPCRED	< -0.25
DHGTDRWVPQPCQLKAFQVD	< -0.25
DHHC	< -0.25
DHIARGEAASLRARTSAASE	< -0.25
DHMQ	< -0.25
DHVSC	< -0.25
DHYCPGGYATKDNAWALPTA	< -0.25
DICHAFVQTRWKI	< -0.25
DICVYFREISHKGYSSSRQR	< -0.25

In another format: results already given
DGVLRQVCSAIVVCFPSA
  growth estimate: < -0.25
DGVSGGPPSRITSVVFHSST
  growth estimate: < -0.25
DGYVSRLNSRLIRLASGAWS
  growth estimate: < -0.25
DHCLQNTRRGTGVRFRTFGG
  growth estimate: < -0.25

Continued:

Substance	growth estimate
DIHTPLGGTTHIKV	< -0.25
DIKFTYTWLRVGGHRV	< -0.25
DILCYGSMEEMASNSPNCIY	< -0.25
DILVTQRLSFNNTTDASYFC	< -0.25
DINLPYRPVKTVFVVGPVRG	< -0.25
DIQLRSRPDLKSFSPPHPAS	< -0.25
DIRIASVTIRLD	< -0.25
DISKSVGETEQEF	< -0.25
DISPALRDWPGEQ	< -0.25
DISPSRGGRATGARRGHRCP	< -0.25
DISSLPKVHQGPVRT	< -0.25
DIVQVIVLGLLYE	< -0.25
DKCIQQLCRLPR	< -0.25
DKDFGDDLSGGVDETCDSVA	< -0.25
DKFTPIIGRECCSYLIQ	< -0.25
DKGAIYRDRLTLDWKQCMRC	< -0.25
DKGGG	< -0.25
DKGIRCALKSSFNRAGRSCH	< -0.25
DKLFRTPDHE	< -0.25
DKLKQCCRGIVHGGYRPEAP	< -0.25
DKSPRCLNDTCMHSVGTLPP	< -0.25
DKVSSGDADGRRGHRFLRGI	< -0.25
DLCGISGWSEGQVG	< -0.25
DLD	0.0776

Substance	growth estimate
DLGQAEEMARSTTLLGNSFQ	-0.121
DLGTSYSLVVMWSDATSGYP	< -0.25
DLGVMGW	< -0.25
DLHAYLDRFLLGPGLRGPNH	-0.239
DLIAPLESL	-0.145
DLIV	< -0.25
DLIVI	< -0.25
DLIYRVTTTSHLHW	< -0.25
DLLLLGLTRCH	< -0.25
DLLMARKFYLLEVSGIVTSV	0.161
DLLVPRLGVSCSPQRGQSQD	< -0.25
DLNNQPLGPN	< -0.25
DLRLVSEEAQRQVSLSGKRS	< -0.25
DLTWWYGSSYPHGVIAASAT	< -0.25
DLVVLARLRFIPTGGQTAGS	< -0.25
DLWTQATQRYIRLVPSSVIF	< -0.25
DLYRDDSRKYFCRARWSMLP	< -0.25
DMAIIEL	< -0.25
DMCLVDYSIKRTRKQMSWAS	< -0.25
DMSIGRASFLMLV	< -0.25
DMYGDCGFSAA	< -0.25
DMYGEFVIHGSGTFIRKRVR	< -0.25
DNGSRCKGKVPPLKKAARNN	< -0.25
DNHPQISMLQVIDLHSL	< -0.25

Substance	growth estimate
DNIVFVLAYVPSDRTHVYGW	< -0.25
DNRQCPV	< -0.25
DNRTLRKTRRRDDVACKPEH	< -0.25
DNRVNATCSASWSPTAYHLH	< -0.25
DNSYSDHRTHFTIARGSVHV	< -0.25
DNVPSY	-0.234
DPCTGSARGGTGEVVLVSRP	< -0.25
DPGIRILE	< -0.25
DPGPCRSVIALTVSISLQIL	< -0.25
DPIR	< -0.25
DPKPLAVDAGKRYIRS	< -0.25
DPLQIKVLVRLNPSESPRVA	< -0.25
DPSHRECQNDYDAELFGASV	0.527
DPSPVAVVHAVSSFV	< -0.25
DPTPALGFVLVWGRWLASHA	< -0.25
DPTTC	< -0.25
DPVGESLRGTNT	< -0.25
DPVHTG	< -0.25
DPVRNYNLKHGTPVAIGFAS	-0.246
DPVSLAYRDFWDY	0.0385
DPY	< -0.25
DPYRMVRTFWKFGFSCCSGK	< -0.25
DQEFDLARVLGDLASSPLER	< -0.25
DQERQRQSEAREGHCGRRSD	< -0.25

Substance	growth estimate
DQFTLNTIFKRESRDVHSNV	-0.246
DQKIPSLWSQGEVLRTNGYL	< -0.25
DQLHHALAVRVSSRA	< -0.25
DQLS	< -0.25
DQMSRATPLSP	< -0.25
DQPVRVSLRCRPYSTSCKRG	< -0.25
DQRLS	< -0.25
DQRSSRRRTILWTFAS	< -0.25
DQSVAETVRAMDVVRGPPVH	< -0.25
DQVANIVMGGVPPENRVAPD	< -0.25
DQVTQHG	-0.246
DQVVSCIRTTKTPSKGVPFA	< -0.25
DQWLLVRAEFPRASRTETMS	< -0.25
DRARFCREYYGSEMKHLAPV	< -0.25
DRCWRFS	< -0.25
DRDYPQG	< -0.25
DRE	< -0.25
DRFDQFRLSIAS	< -0.25
DRFLRHIRFWSNL	-0.243
DRGGRYGRTSSSGACLEPPP	< -0.25
DRGITVVHFR	< -0.25
DRGKALNSAGPIQAAALNV	< -0.25
DRGPMGQIAGDLGPQMTTQP	< -0.25
DRGSFIQKF	< -0.25

Substance	growth estimate
DRHGKTATGPICCGG	< -0.25
DRISSLPYYVKLFVSHQAAG	< -0.25
DRITTSGEIPESPSVRGRKA	< -0.25
DRKPCLNLNNPISRFLRERA	-0.243
DRKVR	< -0.25
DRMAMPVCS	-0.112
DRNFICGEGAVRVFAP	< -0.25
DRNPDRVVRTLSEG	< -0.25
DRNQVTGGLYLSAGTGAMII	< -0.25
DRQ	< -0.25
DRRERSRWDKTISKGYCSLG	< -0.25
DRRLKGVRVSSSGGEPVLKT	< -0.25
DRRPA	< -0.25
DRRWIIAKCVSPQYPDVPFS	< -0.25
DRSAVS	< -0.25
DRSHY	< -0.25
DRSTTKGFRVSRQRFAMIIR	< -0.25
DRSVLRT	< -0.25
DRSVR	< -0.25
DRTGWR	< -0.25
DRTINCRSVPRVELSLVVGA	< -0.25
DRTLATSNPSFRAIRELPTA	< -0.25
DRTRGRPTQLGFREVVQGTL	< -0.25
DRVAA	< -0.25
